Source: PubChem BioAssay AID540256 (National Center for Advancing Translational Sciences (NCATS), 2011)
Screen size: about 300,000 compounds; about 3,700 (1.2%) were called active. Inconclusive means that the source gave no clear call. Such entries were picked first, then a sample of the others. The call rests on the fitted dose curve; tested in HEK293 cells. Potencies beside an inconclusive call are fits to weak or partial responses and may not hold up.

Experiment: qHTS for Inhibitors of binding or entry into cells for Lassa Virus; further: nearly all actives have a fitted effect of over 50% in size
Details: Lassa virus pseudotype entry inhibition, cell reporter; activity change, negative = inhibition: at 37.9 µM (top of the series) unless noted
On the % scale 0 is the no-effect control and ±100 the full control effect; potency means the concentration at half of the fitted maximal effect.

| SMILES | Potency | activity change, negative = inhibition |
| --- | --- | --- |
| Cc1ccc(S(=O)(=O)N2CCCCC2)cc1NC(=O)CN1CC=C(c2ccccc2)CC1 | inconclusive: 10 µM [inhibitor, partial curve] | – |
| O=C(N/N=C/c1cccn1-c1ccc([N+](=O)[O-])cc1)c1cccnc1 | inconclusive: 11.2 µM [inhibitor, partial curve, poor fit] | – |
| Cc1ccc(C)c(C(=O)COC(=O)c2cccc(N3C(=O)c4c(C)nc5ccccc5c4C3=O)c2)c1 | inconclusive: 8.91 µM [inhibitor, partial curve, poor fit] | – |
| COc1ccc(CCCc2nnc(SCC(=O)Nc3ccccc3F)o2)cc1 | inconclusive: 4.47 µM [inhibitor, partial curve, poor fit] | – |
| COc1ccc(CNCCC(c2ccccc2)c2ccc3c(c2)OCO3)cc1 (stereo not drawn) | inconclusive: 29.1 µM [inhibitor, single point] | – |
| O=C(CSCc1ccc(Cl)cc1)Nc1ccccc1O | inconclusive: 10 µM [inhibitor, partial curve, poor fit] | – |
| O=C(O)CC/C(=C\c1ccc(N2CCCC2)c([N+](=O)[O-])c1)c1nc2ccccc2s1 | inconclusive: 15.8 µM [inhibitor, single point] | – |
| Cc1ccc2c(C)c(C(=O)NCCN3CCOC3=O)oc2c1C | inconclusive: 6.31 µM [inhibitor, partial curve, poor fit] | – |
| Cn1c(/C=C/c2ccc([N+](=O)[O-])o2)nc2ccccc2c1=O | active: 2.82 µM | – |
| CC(=O)c1c(C)[nH]c(C(=O)OCC(=O)Nc2sc3c(c2C#N)CCCC3)c1C | inconclusive: 35.5 µM [inhibitor, single point] | – |
| COc1cc(C(=O)N2CCc3c([nH]c4ccccc34)C2c2ccc(C)cc2)cc(OC)c1OC (stereo not drawn) | inconclusive: 35.5 µM [inhibitor, single point] | – |
| CCOC(=O)N/N=C\c1ccc([N+](=O)[O-])s1 | – | inactive: -15.5% |
| Cc1ccc(S(=O)(=O)Nc2ccc3c(c2)OCCO3)cc1 | inconclusive: 22.4 µM [inhibitor, single point] | – |
| O=S(=O)(c1ccc(Nc2ccc3c(c2)OCO3)nc1)N1CCOCC1 | inconclusive: 32.6 µM [activator, partial curve, poor fit] | – |
| CCOc1ccc(CCNC(=O)CCc2c(C)nc3cc(-c4ccccc4OC)nn3c2C)cc1 | inconclusive: 35.5 µM [inhibitor, single point] | – |
| CSc1ccc(CCNC(=O)CN2C(=O)c3cccnc3Oc3ccc(Cl)cc32)cc1 | inconclusive: 14.1 µM [inhibitor, partial curve, poor fit] | – |
| CSc1nc2c(c(=O)[nH]c(=O)n2C)n1Cc1ccc(Cl)cc1 | – | inactive: -0.224% |
| CCOC(=O)c1cn(-c2ccc([N+](=O)[O-])cc2)c2cc(Cl)c([N+](=O)[O-])cc2c1=O | inconclusive: 7.08 µM [activator, full curve] | – |
| O=C(Nc1cccc(S(=O)(=O)N2CCOCC2)c1)c1cn(-c2ccccc2)nc1-c1ccc(F)cc1 | – | inactive: -10.6% |
| Cc1cc(C)nc(NC(=O)c2c(Cl)cccc2Cl)n1 | – | inactive: 8.99% |
| CCOc1cc(C(=O)Nc2ccc([N+](=O)[O-])cn2)cc(OCC)c1OCC | inconclusive: 0.794 µM [inhibitor, partial curve, poor fit] | – |
| COc1ccc(C2=NN(C(=O)CSc3ncccn3)C(c3ccc(C)cc3)C2)cc1 (stereo not drawn) | inconclusive: 15.8 µM [inhibitor, partial curve, poor fit] | – |
| Cc1ccccc1-c1noc(CCC(=O)NCc2ccco2)n1 | – | inconclusive: 28.1% [activator] |

| SMILES | Potency | activity change, negative = inhibition |
| --- | --- | --- |
| O=C(N/N=C\c1ccccc1F)c1ccc(-c2ccccc2)cc1 | – | inactive: -0.748% [at 46.1 µM] |
| Cc1cccc(NC2SC(=O)N(c3ccccc3)C2=O)c1 (stereo not drawn) | inconclusive: 29.1 µM [activator, partial curve, poor fit] | – |
| CCc1c(C)nc2cc(-c3ccc(OC)c(OC)c3)nn2c1NCC1CC1 | inconclusive: 35.5 µM [inhibitor, single point] | – |
| CCOc1ccc(C(=O)NC2CCCCCCC2)cc1 | inconclusive: 8.91 µM [inhibitor, partial curve, poor fit] | – |
| CC(C)(C)OC(=O)N1CCC(c2c(C(=O)NCCN3CCC(Cc4ccccc4)CC3)cnn2-c2ccc(F)cc2)CC1 | inconclusive: 11.2 µM [inhibitor, single point] | – |
| O=C(NC1CC1)C(Cc1ccccc1)NS(=O)(=O)c1ccccc1F (stereo not drawn) | inconclusive: 12.6 µM [activator, partial curve, poor fit] | – |
| O=C(COC(=O)C1CC1)NC(=O)NCc1ccccc1 | – | inactive: 7.07% |
| Cc1cccc(N2CCN(S(=O)(=O)c3cc(C(=O)Nc4ccccc4Cl)ccc3F)CC2)c1C | inconclusive: 5.01 µM [inhibitor, full curve] | – |
| Cc1ccc(S(=O)(=O)N2CCCCC2CCNC(=O)C(=O)NCc2cccnc2)cc1 (stereo not drawn) | inconclusive: 7.94 µM [inhibitor, partial curve, poor fit] | – |
| CC(C)CNC(=O)Cn1c(=O)c2c(ncn2CC(C)C)n(Cc2ccccc2)c1=O | inconclusive: 7.08 µM [inhibitor, partial curve, poor fit] | – |
| O=C(CNc1ccccc1)N/N=C/c1ccc([N+](=O)[O-])o1 | inconclusive: 23.1 µM [inhibitor, single point] | – |
| Cc1ccccc1OCc1nnc(SCC(=O)Nc2ccc3c(c2)OCO3)n1C | – | inactive: -2.19% |
| COC(=O)CCCCC1SCC(NC(=O)c2ccccc2)C1Cl (stereo not drawn) | inconclusive: 35.5 µM [activator, single point] | – |
| O=C(CCc1ccccc1)C(=O)N1CCCC(C(=O)c2cccc(Cl)c2)C1 (stereo not drawn) | – | inactive: -3.29% |
| Cc1onc(-c2ccc(Cl)cc2)c1-c1ccnc(SCC(=O)Nc2cc(Cl)cc(Cl)c2)n1 | inconclusive: 35.5 µM [inhibitor, single point] | – |
| C#CCn1c(=NC(=O)c2cc(Cl)sc2Cl)sc2cc(S(N)(=O)=O)ccc21 | inconclusive: 35.5 µM [inhibitor, single point] | – |
| CSc1nc2c(c(=O)n1Cc1ccccc1)SC(C)C2 (stereo not drawn) | – | inactive: 9.55% |
| O=C(NC(c1ccccc1)C(Cl)(Cl)Cl)c1ccccc1 (stereo not drawn) | inconclusive: 0.112 µM [inhibitor, full curve, poor fit] | – |
| CCOc1ccc(NC(=O)Cn2cc(C(=O)c3ccco3)c3ccccc32)cc1 | inactive | – |
| CCOc1ccc(CCNC(=O)c2cc3c(-c4ccc(OC)c(OC)c4)nn(C)c3s2)cc1OCC | inconclusive: 15.8 µM [inhibitor, partial curve, poor fit] | – |
| COc1ccc(-c2nnnn2CCc2ccccc2)cc1 | – | inactive: 4.44% |
| CC(C)(CO)NCc1cccc(OCc2ccc(Cl)cc2)c1 | inconclusive: 29.1 µM [inhibitor, single point] | – |
| COc1ccccc1Nc1nc(N)nc(CSc2nncn2C)n1 | – | inactive: 16.2% |

| SMILES | Potency | activity change, negative = inhibition |
| --- | --- | --- |
| Cc1cccc(CN2C(=O)N/C(=C/c3ccc(C)s3)C2=O)c1 | active: 3.16 µM | – |
| C=C(C)c1cccc(C(C)(C)NC(=O)Nn2cnnc2)c1 | inconclusive: 16.4 µM [activator, partial curve, poor fit] | – |
| CCOC(=O)CNC(=O)c1cc(-c2ccc3c(c2)OCCO3)oc1C | – | inactive: -16.2% |
| O=C(CSc1nc(Nc2ccccc2)nc(N2CCOCC2)n1)NC1CCCCC1 | inconclusive: 35.5 µM [inhibitor, single point] | – |
| Cc1cc(C)cc(NC(=O)c2ccc(S(=O)(=O)N(C)CC3CCCO3)cc2)c1 (stereo not drawn) | – | inactive: -11% |
| Clc1ccc(-c2nc(N3CCCCC3)nc3ccccc23)cc1 | – | inactive: 0.589% |
| O=C(NNC(=O)c1ccc(-c2ccccc2)cc1)Nc1ccccc1 | – | inactive: 11.5% [at 46.1 µM] |
| Cc1cc(C)cc(N2C(=O)NC(=O)/C(=C\c3cccn3-c3ccccc3)C2=O)c1 | inconclusive: 35.5 µM [inhibitor, single point] | – |
| CCCN(C(=O)c1coc(=O)c2ccccc12)c1ccccc1C | inconclusive: 8.91 µM [inhibitor, partial curve, poor fit] | – |
| O=[N+]([O-])c1cnn(-c2nc(-c3ccccc3)cc(C(F)(F)F)n2)c1 | – | inactive: 17.3% [at 46.1 µM] |
| O=C(Nc1cccnc1Oc1ccc(Cl)cc1)c1cccc2ccccc12 | inconclusive: 35.5 µM [inhibitor, single point] | – |
| CCc1ccc(OCC2c3cc(OC)c(OC)cc3CCN2C(=O)COc2ccccc2)cc1 (stereo not drawn) | inconclusive: 6.31 µM [inhibitor, single point] | – |
| Cc1ccc(CCNC(=O)C2CCN(Cc3nc(-c4ccccc4C)oc3C)CC2)cc1 | – | inactive: 6.17% [at 46.1 µM] |
| CC1C(c2ccccc2)N(C)C(c2ccccc2)CC1(O)c1ccccc1 (stereo not drawn) | inconclusive: 9.2 µM [inhibitor, partial curve, poor fit] | – |
| O=C(c1ccco1)N1CCN(C(=O)c2ccc(COc3ccc(Cl)cc3Cl)o2)CC1 | active: 13 µM | – |
| Cc1cc(S(=O)(=O)C(CNC(=O)COc2ccc(Cl)cc2)c2cccs2)ccc1F (stereo not drawn) | inconclusive: 10 µM [inhibitor, partial curve, poor fit] | – |
| COc1ccc(NC(=S)NC(=O)c2ccc3c(c2)OCCO3)cc1 | – | inactive: -8.47% |
| Cc1ccc(Cl)cc1NC(=O)C(Cc1ccccc1)N1C(=O)C2C3CCC(C3)C2C1=O (stereo not drawn) | – | inactive: 1.53% |
| O=C(COc1cccc2ccccc12)Nc1nc2ccccc2[nH]1 | – | inactive: 6.11% |
| CC(C)NC(=O)c1ccccc1NC(=O)C1CC(=O)N(C(C)C)C1 (stereo not drawn) | – | inactive: -2.98% [at 46.1 µM] |
| CC(=O)c1ccc(/C=C/c2nc3ccccc3n2C)o1 | inconclusive: 35.5 µM [inhibitor, single point] | – |
| O=C(C1CCC1)N1CCc2cc(S(=O)(=O)NCc3ccc(F)cc3)ccc21 | – | inactive: 2.9% [at 46.1 µM] |

19 entries already listed, arranged by molecular weight, rising.

| SMILES | Potency | activity change, negative = inhibition |
| --- | --- | --- |
| Cn1c(/C=C/c2ccc([N+](=O)[O-])o2)nc2ccccc2c1=O | active: 2.82 µM | – |
| CCCN(C(=O)c1coc(=O)c2ccccc12)c1ccccc1C | inconclusive: 8.91 µM [inhibitor, partial curve, poor fit] | – |
| Clc1ccc(-c2nc(N3CCCCC3)nc3ccccc23)cc1 | – | inactive: 0.589% |
| O=C(NC(c1ccccc1)C(Cl)(Cl)Cl)c1ccccc1 (stereo not drawn) | inconclusive: 0.112 µM [inhibitor, full curve, poor fit] | – |
| O=C(NNC(=O)c1ccc(-c2ccccc2)cc1)Nc1ccccc1 | – | inactive: 11.5% [at 46.1 µM] |
| O=[N+]([O-])c1cnn(-c2nc(-c3ccccc3)cc(C(F)(F)F)n2)c1 | – | inactive: 17.3% [at 46.1 µM] |
| COC(=O)CCCCC1SCC(NC(=O)c2ccccc2)C1Cl (stereo not drawn) | inconclusive: 35.5 µM [activator, single point] | – |
| COc1ccc(CNCCC(c2ccccc2)c2ccc3c(c2)OCO3)cc1 (stereo not drawn) | inconclusive: 29.1 µM [inhibitor, single point] | – |
| O=C(C1CCC1)N1CCc2cc(S(=O)(=O)NCc3ccc(F)cc3)ccc21 | – | inactive: 2.9% [at 46.1 µM] |
| Cc1ccccc1OCc1nnc(SCC(=O)Nc2ccc3c(c2)OCO3)n1C | – | inactive: -2.19% |
| CCOC(=O)c1cn(-c2ccc([N+](=O)[O-])cc2)c2cc(Cl)c([N+](=O)[O-])cc2c1=O | inconclusive: 7.08 µM [activator, full curve] | – |
| O=C(O)CC/C(=C\c1ccc(N2CCCC2)c([N+](=O)[O-])c1)c1nc2ccccc2s1 | inconclusive: 15.8 µM [inhibitor, single point] | – |
| Cc1ccc(CCNC(=O)C2CCN(Cc3nc(-c4ccccc4C)oc3C)CC2)cc1 | – | inactive: 6.17% [at 46.1 µM] |
| C#CCn1c(=NC(=O)c2cc(Cl)sc2Cl)sc2cc(S(N)(=O)=O)ccc21 | inconclusive: 35.5 µM [inhibitor, single point] | – |
| CSc1ccc(CCNC(=O)CN2C(=O)c3cccnc3Oc3ccc(Cl)cc32)cc1 | inconclusive: 14.1 µM [inhibitor, partial curve, poor fit] | – |
| CCc1ccc(OCC2c3cc(OC)c(OC)cc3CCN2C(=O)COc2ccccc2)cc1 (stereo not drawn) | inconclusive: 6.31 µM [inhibitor, single point] | – |
| CCOc1ccc(CCNC(=O)CCc2c(C)nc3cc(-c4ccccc4OC)nn3c2C)cc1 | inconclusive: 35.5 µM [inhibitor, single point] | – |
| Cc1ccc(C)c(C(=O)COC(=O)c2cccc(N3C(=O)c4c(C)nc5ccccc5c4C3=O)c2)c1 | inconclusive: 8.91 µM [inhibitor, partial curve, poor fit] | – |
| Cc1cccc(N2CCN(S(=O)(=O)c3cc(C(=O)Nc4ccccc4Cl)ccc3F)CC2)c1C | inconclusive: 5.01 µM [inhibitor, full curve] | – |
